Assay [1] has as its target T1, FLAG-tagged PAK4* (RR48/49AE) (human) (UniProt O96013).
T1 sequence: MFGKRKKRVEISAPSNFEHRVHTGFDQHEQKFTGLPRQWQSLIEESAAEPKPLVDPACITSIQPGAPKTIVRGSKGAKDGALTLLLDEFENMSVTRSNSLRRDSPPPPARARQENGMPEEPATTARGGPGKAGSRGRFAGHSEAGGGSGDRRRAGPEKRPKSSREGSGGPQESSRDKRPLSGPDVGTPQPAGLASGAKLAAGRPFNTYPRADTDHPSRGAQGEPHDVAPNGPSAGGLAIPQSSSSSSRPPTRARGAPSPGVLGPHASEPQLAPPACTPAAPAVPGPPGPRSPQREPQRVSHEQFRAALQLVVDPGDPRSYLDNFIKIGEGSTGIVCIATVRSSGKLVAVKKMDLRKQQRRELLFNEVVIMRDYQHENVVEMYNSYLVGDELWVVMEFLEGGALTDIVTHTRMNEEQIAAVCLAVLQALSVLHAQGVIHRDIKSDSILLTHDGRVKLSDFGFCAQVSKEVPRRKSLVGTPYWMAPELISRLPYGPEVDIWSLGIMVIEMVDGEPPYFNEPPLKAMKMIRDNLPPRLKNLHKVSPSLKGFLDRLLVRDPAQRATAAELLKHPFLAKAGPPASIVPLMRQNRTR
Kind of assay: co-IP; told only in the discussion; constructs and conditions for Inka2 not told.

Sequences of proteins named here, by UniProt entry; tags and fusion partners are left off.
UniProt Q9NTI7: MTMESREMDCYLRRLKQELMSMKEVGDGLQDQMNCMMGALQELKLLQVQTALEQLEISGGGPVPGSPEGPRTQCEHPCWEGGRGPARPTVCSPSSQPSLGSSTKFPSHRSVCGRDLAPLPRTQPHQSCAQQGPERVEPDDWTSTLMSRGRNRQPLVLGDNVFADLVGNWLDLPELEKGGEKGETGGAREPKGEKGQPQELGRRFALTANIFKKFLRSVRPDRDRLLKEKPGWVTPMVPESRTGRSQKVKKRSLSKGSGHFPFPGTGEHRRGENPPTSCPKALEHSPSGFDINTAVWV

The target of assay [2] is FLAG-tagged wild-type PAK4 (human) (UniProt O96013). Described as above.

Results are given in words; binding and its absence hold for the method and conditions named. Binding seen in cells or lysates may run through a third protein. Some entries that bind do so weakly or less than the wild type. For some assays here: Where a sequence is shown, tags or fusion partners need not be part of it.

With Inka2 (from UniProt Q9NTI7 1-297), the binding entry in assay [1] and in assay [2] was “binds” in each case.
